Laboratory results: PubChem BioAssay AID587 (National Center for Advancing Translational Sciences (NCATS), 2007)
Screen size: about 59,000 compounds; about 35 (0.06%) were called active. Inconclusive means that the source gave no clear call. Such entries were picked first, then a sample of the others. No stated cut-off is given here; in the data, active means max dye-equivalent concentration above about 10 nM; inconclusive means between about 1.1 nM and that limit; inactive means weaker than that.

Assay: qHTS Assay for Spectroscopic Profiling in Texas Red Spectral Region
Conditions: Compound fluorescence, Texas Red channel, 547/618 nm; stronger effect = higher value
How it was run: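 Dye-equivalent concentrations come from scaling compound signal (ex 547, em 618 nm) to six Texas Red standard concentrations run on every plate, after 15 min room-temperature incubation in pH 8.0 Tris (100 mM).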

SMILES | max dye-equivalent concentration
CC(=O)c1c(C)nc2cc(Cl)ccc2c1N | inactive
CCOC(=O)c1sc2nc(N3CCOCC3)c3c(c2c1N)CCC3 | inconclusive: 1.1 nM
Cn1c(-c2ccc(F)cc2)cnc1NCc1ccccc1 | inconclusive: 1.3 nM
CCOC(=O)CSc1nnc(CNC(=O)c2cccs2)n1-c1cccc(C)c1 | inconclusive: 1.4 nM
COc1cccc(Cn2c(=O)c(-c3ccc(Cl)cc3)nc3cnc(N4CCNCC4)nc32)c1 | inconclusive: 1.2 nM
O=C(NCCCN1CCOCC1)c1ccc(CS(=O)(=O)Cc2ccc(Cl)cc2)o1 | inconclusive: 1.1 nM
CC(C)c1[nH]nc2c1C(c1cccnc1)C(C#N)=C(N)O2 (stereo not drawn) | inconclusive: 1.6 nM
O=S(=O)(c1ccc(Cl)cc1Br)N1CCCCC1 | inconclusive: 1.1 nM
O=C(CN(c1ccc(F)cc1)S(=O)(=O)c1ccccc1)NCc1ccco1 | inconclusive: 1.6 nM
CCc1ccc2[nH]c(=O)c(CN(CCN(C)C)C(=O)Nc3ccccc3OC)cc2c1 | inconclusive: 2.2 nM
C=CCN1C(=NC(=O)CCCC(=O)O)SC2CS(=O)(=O)CC21 (stereo not drawn) | inconclusive: 1.8 nM
CCc1ccccc1N(CC)C(=O)CCc1nc(-c2ccc(C)cc2)no1 | inconclusive: 1.1 nM
O=C1CC(c2ccc(Cl)cc2)n2nc(N3C(=O)CCC3=O)nc2N1 (stereo not drawn) | inconclusive: 1.5 nM
O=C(CSc1nnc(-c2ccccn2)n1Cc1ccccc1)N1CCCC1 | inconclusive: 1.3 nM
CCc1c(C)nc2ncnn2c1N1CCC(C(=O)N2CCN(c3ccc(F)cc3)CC2)CC1 | inconclusive: 2.1 nM
CC1CCCN(c2oc(-c3cccc4ccccc34)nc2C#N)C1 (stereo not drawn) | inconclusive: 1.3 nM
COc1ccccc1-c1nc(N(C)C)c2ccccc2n1 | inactive
Cc1nc(SCC(=O)Nc2cc(C)on2)c2c3c(sc2n1)CCCC3 | inconclusive: 1.2 nM
CC1CCN(C(=O)Cn2cc(C(=O)c3ccco3)c3ccccc32)CC1 | inconclusive: 1.9 nM
Cc1ccccc1-c1nc(-c2cccnc2)no1 | inconclusive: 1.8 nM
Cc1ccc(C(=O)N2CCN(S(C)(=O)=O)C2)cc1 | inconclusive: 1.2 nM
Cc1ccc(O)c(-c2cc(C(F)(F)C(F)F)[nH]n2)c1 | inconclusive: 1.3 nM
CCOc1ccc(NC(=O)c2ccccc2O)cc1 | inconclusive: 1.5 nM
CCn1nnnc1-c1ccc(OC)c(S(=O)(=O)N2CCCCC2)c1 | inconclusive: 1.4 nM
CC(C)OC(=O)CSc1nnc(-c2ccc(O)cc2)n1Cc1ccccc1 | inconclusive: 2.2 nM
O=C(CN1C(=O)c2ccccc2C1=O)N1CCOCC1 | inconclusive: 1.5 nM
CCC(=O)Nc1ccc(N2CCN(Cc3ccccc3F)CC2)cc1 | inconclusive: 1.3 nM

In the list so far, two have a cyano group:
SMILES | max dye-equivalent concentration
CC(C)c1[nH]nc2c1C(c1cccnc1)C(C#N)=C(N)O2 (stereo not drawn) | inconclusive: 1.6 nM
CC1CCCN(c2oc(-c3cccc4ccccc34)nc2C#N)C1 (stereo not drawn) | inconclusive: 1.3 nM

The results go on:

SMILES | max dye-equivalent concentration
NCCN1C(=O)c2ccccc2[C@@]1(O)c1ccc(Cl)cc1 | inactive
COC(=O)c1ccccc1NC(=O)Cn1c(-c2nonc2N)nc2ccccc21 | inconclusive: 1.1 nM
COc1c(O)ccc2c1CN1CCc3cc4c(cc3[C@@H]1C2)OCO4 | inactive
O=C(NCc1ccccn1)c1cc2ccccc2oc1=O | inactive
C[C@]1(C2CCCC2)Cc2cc(OCC(=O)O)c(Cl)c(Cl)c2C1=O | inconclusive: 1.1 nM
COC(=O)c1ccc(COC(=O)c2ccc(-n3cnnn3)cc2)o1 | inconclusive: 1.5 nM
COc1ccc2c(c1)CCc1c(C(=O)Nc3ccc(OC)c(OC)c3)noc1-2 | inconclusive: 1.7 nM
Cc1ccccc1NC(=O)c1ccccc1 | inconclusive: 1.1 nM
CCN(CC)S(=O)(=O)c1cccc(-c2nnc(SCC(=O)c3cc(C)n(C4CC4)c3C)o2)c1 | inconclusive: 1.2 nM
CCN(CC)CCCNC(=O)c1cc(-c2cccc(Cl)c2)on1 | inconclusive: 1.2 nM
Cn1cccc1C(=O)N1CCC2(CC1)CN(C(=O)Nc1cccc(C#N)c1)C2 | inactive
COc1cccc(C(=O)Nc2ccc(NC(=O)C(C)(C)C)cn2)c1 | inconclusive: 1.1 nM
O=C(c1ccc(COc2ccc(Cl)cc2)o1)N1CCN(Cc2ccc3c(c2)OCO3)CC1 | inconclusive: 1.1 nM
COCCn1nnnc1C(C(C)C)N(Cc1cccnc1)Cc1cc2cc(OC)ccc2[nH]c1=O (stereo not drawn) | inconclusive: 1.2 nM
Cc1ccc(N2C(=O)[C@@H]3C(c4ccc(F)cc4)=NO[C@@H]3C2=O)cc1 | inconclusive: 1.2 nM
Cc1c(F)cccc1NS(=O)(=O)c1ccccc1C#N | inconclusive: 1.3 nM
CCOC(=O)CNC(=O)c1ccc2c(c1)OCCO2 | inactive
Cc1ccccc1CN(c1ccc(C(=O)N2CCCC2)cc1)S(C)(=O)=O | inconclusive: 1.4 nM
CC1(C)CCC2=C(O1)c1ccccc1C(=O)C2=O | inactive
Cc1cccc(C)c1NC(=O)N1CCC(n2cnc3ccccc32)CC1 | inconclusive: 1.6 nM
CCCOc1ccccc1-c1nc2n[nH]nc2c(=O)[nH]1 | inconclusive: 1.1 nM
COc1ccccc1NC(=O)c1ccc(NC(=O)CSc2nnnn2C)cc1 | inconclusive: 1.3 nM
Cn1c(=O)c2c(nc(SCC(=O)N3CCc4ccccc43)n2Cc2ccccc2)n(C)c1=O | inconclusive: 1.5 nM
CC(=O)Nc1cccc(OCC(=O)NS(=O)(=O)c2ccc(Cl)cc2)c1 | inconclusive: 1.2 nM
CCc1nnc(NC(=O)C2CC(=O)N(Cc3ccco3)C2)s1 (stereo not drawn) | inconclusive: 1.1 nM
CN[C@@H](CC(C)C)C(=O)N[C@@H]1C(=O)N[C@H](CC(N)=O)C(=O)N[C@@H]2C(=O)N[C@H]3C(=O)N[C@H](C(=O)N[C@H](C(=O)O)c4cc(O)cc(O)c4-c4cc3ccc4O)[C@H](O)c3ccc(c(Cl)c3)Oc3cc2cc(c3O[C@H]2O[C@@H](CO)[C@@H](O)[C@@H](O)[C@@H]2O[C@@H]2C[C@](C)(N)[C@H](O)[C@H](C)O2)Oc2ccc(cc2Cl)[C@@H]1O | inconclusive: 1.6 nM
